Data taken from article PMC6858607.
Results are given in words; binding and its absence hold for the method and conditions named. Binding seen in cells or lysates may run through a third protein. Some binding calls cover weakened binding; strength is not graded here.

Biological target: Pseudomonas aeruginosa lectin LecB, biotinylated (P. aeruginosa) (UniProt Q9HYN5)
Test: pull-down; NHKs stimulated with 5 ug/ml (106 nM) biotinylated LecB, lysates incubated with streptavidin beads, eluted, Western blot; also as a time series; only the target purified

Substance	binding
epidermal growth factor receptor 1 (from UniProt P00533 25-1210)	binds
insulin-like growth factor-1 receptor (from UniProt P08069 31-1367)	binds
